Measurements as given in PMC4703963.
These are yes or no findings as the source states them, for the method shown. In cells and extracts the contact can be indirect. Some binding calls cover weakened binding; strength is not graded here. Where a sequence is shown, tags or fusion partners need not be part of it.

Target: Flag-tagged PHD2 (with an HA-tagged copy of PHD2 in the co-immunoprecipitation) (human), Q9GZT9
Test: co-IP; HA-tagged and Flag-tagged PHD2 co-transfected; cells treated with H2O2 (0.2 mM) or expressing H-ras V12; lysates on anti-Flag-conjugated beads 1 h, washed with 200 mM NaCl; blot for HA
Settings: remark: other sources report otherwise

B1: Flag-tagged PHD2 (with an HA-tagged copy of PHD2 in the co-immunoprecipitation), Q9GZT9 1-426 (natural protein)
chain: MANDSGGPGGPSPSERDRQYCELCGKMENLLRCSRCRSSFYCCKEHQRQDWKKHKLVCQGSEGALGHGVGPHQHSGPAPPAAVPPPRAGAREPRKAAARRDNASGDAAKGKVKAKPPADPAAAASPCRAAAGGQGSAVAAEAEPGKEEPPARSSLFQEKANLYPPSNTPGDALSPGGGLRPNGQTKPLPALKLALEYIVPCMNKHGICVVDDFLGKETGQQIGDEVRALHDTGKFTDGQLVSQKSDSSKDIRGDKITWIEGKEPGCETIGLLMSSMDDLIRHCNGKLGSYKINGRTKAMVACYPGNGTGYVRHVDNPNGDGRCVTCIYYLNKDWDAKVSGGILRIFPEGKAQFADIEPKFDRLLFFWSDRRNPHEVQPAYATRYAITVWYFDADERARAKVKYLTGEKGVRVELNKPSDSVGKDVF
B1 was tested, and the binding was “binds”.
